# Measurements from PubChem BioAssay AID2685 (National Center for Advancing Translational Sciences (NCATS), 2010).
# In all, about 320,000 compounds went through this assay and about 2,100 (0.66%) were called active. Only results without a clear call are listed here; the source files them as inconclusive. The call rests on the fitted dose curve; in most records, active means well fitted inhibition curve with a large enough effect in the signal ratio, with a control signal flat (not every such curve was filed as active); inconclusive means small, poorly fitted or top-dose-only effect, or effect the other way, or a change in a side signal; inactive means flat fitted curve, though single readings scatter; the % refers to the signal ratio. Some of these compounds have results that are not shown, active ones among them.
# Test: qHTS Assay for Lipid Storage Modulators in Drosophila S3 Cells
# Details: BODIPY lipid droplet fluorescence, 18-24 h, cells fed with added oleic acid
row,SMILES,outcome
1,Cc1ccccc1C(=O)NCC1(N2CCCCC2)CCCCC1,inconclusive
2,O=C(NCC1(N2CCCCC2)CCCCC1)c1cc(F)c(F)cc1Cl,inconclusive
3,CN1[C@@H]2CC[C@H]1CC(OC(=O)C(O)(c1ccccc1)c1ccccc1)C2 (some centres undefined),inconclusive
4,CCN(CC)CC(C)C(C)OC(=O)C(O)(c1ccccc1)c1ccccc1 (centres undefined),inconclusive
5,Cc1ccc(C(=O)NCC2(N3CCCCC3)CCCCC2)cc1,inconclusive
6,O=C(OC1CN2CCC1CC2)C(CO)(c1ccccc1)c1ccccc1 (centres undefined),inconclusive
7,COc1cc(C(=O)NCC2(N(C)C)CCCCC2)c([N+](=O)[O-])cc1OC,inconclusive
8,COc1cccc(C(=O)NCC2(N3CCCCC3)CCCCC2)c1,inconclusive
9,O=C(NCC1(N2CCCCC2)CCCCC1)c1cccc(Cl)c1,inconclusive
